Test results: PubChem BioAssay AID256 (DTP/NCI, 2004)
The list does not hold the whole screen: it gathers tests that were run many times, whatever their T/C, doses with no T/C, and many T/C values between a quarter and a half above the control. Further doses and runs are listed elsewhere. T/C gives the treated animals as a percentage of the vehicle group. Some entries give survivors of the animals treated and no T/C: the source holds a T/C of zero for them, seemingly a mark for toxic or unscored doses. Some survivor counts are full or nearly so, which does not show that the dose was tolerated: survival well below the control is almost never listed, so the zero probably covers shortened survival too. Counts of survivors are from the toxicity check (mostly the fifth day) where no day follows; animals may have died later. Schedule codes are those of the source, taken here to give the interval after Q, in days (D) or hours (H), and the number of doses after X. Marks such as (2×) count equal records among those shown. Some entries hold several experiments; the results are listed from low to high. Where survival is the endpoint, this PubChem deposit counts one and a half times the control or more as active, and values a quarter to a half above the control carry no call in these data; other NCI protocols may use other cut-offs.

Tested on: CD2F1 mice, L1210 leukemia ip, survival T/C
Experiment: NCI In Vivo Anticancer Drug Screen. Data for tumor model L1210 Leukemia (intraperitoneal) in CD2F1 (CDF1) mice
Details: higher T/C = longer survival
Procedure, shortened: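 Mice carrying a transplanted tumor received test compound or vehicle alone. The value is the measurement in the treated group divided by that in the vehicle-treated control group.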

[1] = T/C endpoint: mean survival time, dose: 25.0 mg/kg/injection, schedule: Q01DX009 (ip), vehicle: saline with Tween-80
[2] = T/C endpoint: mean survival time, dose: 400.0 mg/kg/injection, schedule: Q04DX003 (ip), vehicle: saline with Tween-80
[3] = T/C endpoint: mean survival time, dose: 50.0 mg/kg/injection, schedule: Q01DX009 (ip), vehicle: saline
[4] = T/C endpoint: mean survival time, dose: 100.0 mg/kg/injection, schedule: Q01DX009 (ip), vehicle: saline
[5] = T/C endpoint: mean survival time, dose: 200.0 mg/kg/injection, schedule: Q01DX009 (ip), vehicle: saline
[6] = T/C endpoint: mean survival time, dose: 400.0 mg/kg/injection, schedule: Q01DX009 (ip), vehicle: saline
[7] = T/C endpoint: mean survival time, dose: 400.0 mg/kg/injection, schedule: Q01DX001 (ip), vehicle: saline with Tween-80
[8] = T/C endpoint: mean survival time, dose: 100.0 mg/kg/injection, schedule: Q01DX001 (ip), vehicle: saline with Tween-80
[9] = T/C endpoint: mean survival time, dose: 100.0 mg/kg/injection, schedule: Q04DX003 (ip), vehicle: saline with Tween-80
[10] = T/C endpoint: mean survival time, dose: 200.0 mg/kg/injection, schedule: Q01DX001 (ip), vehicle: saline with Tween-80

For CCCCCCCCCCCCCCCCCCNC(=S)NCCCCCCCCCCCCCCCCCC, the survivor count [1] was 6 of 6.

COc1ccc(C(C)=O)cc1[N+](=O)[O-] was tested, and the survivor count (T/C endpoint: mean survival time, dose: 400.0 mg/kg/injection, schedule: Q01DX009 (ip), vehicle: saline with Tween-80) was 3 of 6.

In the case of N#CC(=N)N1CCN(C(=N)C#N)CC1, the survivor count (T/C endpoint: mean survival time, dose: 100.0 mg/kg/injection, schedule: Q04DX002 (ip), vehicle: saline with Tween-80) is reported as 0 of 3, the survivor count (T/C endpoint: mean survival time, dose: 200.0 mg/kg/injection, schedule: Q01DX001 (ip), vehicle: saline) is reported as 0 of 6 and the survivor count (T/C endpoint: mean survival time, dose: 400.0 mg/kg/injection, schedule: Q01DX001 (ip), vehicle: saline) is reported as 0 of 6.

With CCCCCCC[CH2][Sn]([CH2]C)([CH2]C)[O]C(C)=O the survivor count (T/C endpoint: mean survival time, dose: 2.5 mg/kg/injection, schedule: Q04DX003 (ip), vehicle: saline) was 6 of 6.

For CCCCCCC(C(=O)OCC)P(=O)(OCC)OCC (stereo not given), the survivor count (T/C endpoint: mean survival time, dose: 150.0 mg/kg/injection, schedule: Q04DX003 (ip), vehicle: saline with Tween-80) was 3 of 6 and the survivor count (T/C endpoint: mean survival time, dose: 300.0 mg/kg/injection, schedule: Q04DX003 (ip), vehicle: saline with Tween-80) was 1 of 6.

COc1ccc2c(c1)-c1nn(CCCN(C)C)c3ccc([N+](=O)[O-])c(c13)N2 was tested, and the T/C (T/C endpoint: median survival time, dose: 3.12 mg/kg/injection, schedule: Q01DX005 (ip), vehicle: water) was 132 % of control, the T/C (T/C endpoint: median survival time, dose: 4.5 mg/kg/injection, schedule: Q01DX005 (ip), vehicle: water) was 143 % of control and the T/C (T/C endpoint: median survival time, dose: 6.25 mg/kg/injection, schedule: Q01DX005 (ip), vehicle: water) was 144 % of control. The T/C (T/C endpoint: median survival time, dose: 12.5 mg/kg/injection, schedule: Q01DX005 (ip), vehicle: water) was 144 % of control, the T/C (T/C endpoint: median survival time, dose: 25.0 mg/kg/injection, schedule: Q01DX005 (ip), vehicle: water) was 144 % of control and the T/C (T/C endpoint: median survival time, dose: 25.0 mg/kg/injection, schedule: Q01DX009 (ip), vehicle: water) was 136 % of control.

With CC(C)C(=O)[O][Sn]([CH2]c1ccccc1)([CH2]c1ccccc1)[CH2]c1ccccc1 the survivor count (T/C endpoint: mean survival time, dose: 100.0 mg/kg/injection, schedule: Q01DX009 (ip), vehicle: saline with Tween-80) was 6 of 6.

CC(Br)C(=O)NC(CC(N)=O)C(=O)O (stereo not given) was tested, and the survivor count [2] was 6 of 6.

CN=NC1(OC(C)=O)CCCC1 was tested, and the survivor count [3] was 1 of 3, the survivor count [4] was 0 of 3 and the survivor count [5] was 0 of 3. The survivor count [6] was 0 of 3.

With CC[NH-].CC[NH-].[Cl][Pt+2][Cl] the survivor count (T/C endpoint: mean survival time, dose: 20.0 mg/kg/injection, schedule: Q04DX003 (ip), vehicle: water) was 10 of 10 and the survivor count (T/C endpoint: mean survival time, dose: 40.0 mg/kg/injection, schedule: Q04DX003 (ip), vehicle: water) was 10 of 10.

CC(=O)Nc1ccc(SCCCc2c(N)nc(N)nc2N)cc1 was tested, and the survivor count [7] was 1 of 3.

For CCN1/C(=C/C=C/C=C\C=C\c2sc3ccc4ccccc4c3[n+]2CC)Sc2ccc3ccccc3c21, the T/C (T/C endpoint: mean survival time, dose: 5.0 mg/kg/injection, schedule: Q01DX009 (ip), vehicle: saline with Tween-80) was 125 and 126 % of control and the T/C (T/C endpoint: mean survival time, dose: 10.0 mg/kg/injection, schedule: Q01DX009 (ip), vehicle: saline with Tween-80) was 128 % of control.

With C=CC(=O)O the survivor count (T/C endpoint: mean survival time, dose: 14.0 mg/kg/injection, schedule: Q01DX009 (ip), vehicle: acetone) was 6 of 6, the survivor count (T/C endpoint: mean survival time, dose: 21.0 mg/kg/injection, schedule: Q01DX009 (ip), vehicle: acetone) was 6 of 6 and the survivor count [1] was 0 of 6. The survivor count (T/C endpoint: mean survival time, dose: 25.0 mg/kg/injection, schedule: Q04DX003 (ip), vehicle: Klucel (hydroxypropylcellulose) (HPC)) was 1 of 3 and the survivor count (T/C endpoint: mean survival time, dose: 50.0 mg/kg/injection, schedule: Q04DX003 (ip), vehicle: saline with Tween-80) was 4 of 6.

In the case of O=C(/C=C/C=C/c1ccccc1)c1ccc(Cl)cc1, the survivor count (T/C endpoint: mean survival time, dose: 132.0 mg/kg/injection, schedule: Q04DX003 (ip), vehicle: saline with Tween-80) is reported as 6 of 6.

In the case of Cc1nnc2ncccn12, the survivor count [6] is reported as 0 of 10 and 4 of 6.

CC[N](CC)[Ge]([CH2]C)[CH2]C.CC[N](CC)[Ge]([CH2]C)[CH2]C was tested, and the survivor count (T/C endpoint: mean survival time, dose: 3.12 mg/kg/injection, schedule: Q01DX009 (ip), vehicle: suspension in saline) was 6 of 6, the survivor count (T/C endpoint: mean survival time, dose: 6.25 mg/kg/injection, schedule: Q01DX009 (ip), vehicle: suspension in saline) was 6 of 6 and the survivor count (T/C endpoint: mean survival time, dose: 12.5 mg/kg/injection, schedule: Q01DX009 (ip), vehicle: suspension in saline) was 6 of 6. For the same compound, the survivor count (T/C endpoint: mean survival time, dose: 25.0 mg/kg/injection, schedule: Q01DX009 (ip), vehicle: suspension in saline) was 6 of 6, the survivor count (T/C endpoint: mean survival time, dose: 50.0 mg/kg/injection, schedule: Q01DX009 (ip), vehicle: suspension in saline) was 3 of 6 and the survivor count [4] was 0 of 6. The survivor count (T/C endpoint: mean survival time, dose: 100.0 mg/kg/injection, schedule: Q01DX009 (ip), vehicle: suspension in saline) was 0 of 6 (2×).

With COc1cccc2c1C(=O)c1c(O)c3c(c(O)c1C2=O)C[C@@](O)(C(=O)CO)C[C@@H]3OC1CC(N)CC(C)O1 (stereo not given in full) the T/C (T/C endpoint: median survival time, dose: 0.37 mg/kg/injection, schedule: Q01DX009 (ip), vehicle: water) was 142 % of control and the survivor count (T/C endpoint: median survival time, dose: 6.0 mg/kg/injection, schedule: Q01DX009 (ip), vehicle: water) was 5 of 6.

In the case of C/C=C/C=C\C=C/C(O)CC(OP(=O)(O)O)C(C)(O)/C=C/C1CC=CC(=O)O1 (stereo not given), the T/C (T/C endpoint: median survival time, dose: 1.5 mg/kg/injection, schedule: Q01DX009 (ip), vehicle: water) is reported as 132 % of control and the survivor count (T/C endpoint: median survival time, dose: 12.0 mg/kg/injection, schedule: Q01DX009 (ip), vehicle: water) is reported as 0 of 6.

CNNCCCC(=O)NC(C)C was tested, and the survivor count (T/C endpoint: mean survival time, dose: 400.0 mg/kg/injection, schedule: Q04DX003 (ip), vehicle: saline) was 3 of 6.

With CCN=C=NCCCN(C)C the survivor count [3] was 4 of 6, the survivor count [4] was 0 of 6 and the survivor count [5] was 0 of 6.

In the case of O=C1C=CC(=O)C2CC=CCC12 (stereo not given), the survivor count [8] is reported as 3 of 6, the survivor count [9] is reported as 0 of 6 and the survivor count [10] is reported as 0 of 6. The survivor count (T/C endpoint: mean survival time, dose: 200.0 mg/kg/injection, schedule: Q04DX003 (ip), vehicle: saline with Tween-80) was 0 of 6, the survivor count [7] was 0 of 6 and the survivor count [2] was 0 of 6.

With F[Si](c1ccc(Br)cc1)(c1ccc(Br)cc1)c1ccc(Br)cc1 the survivor count (T/C endpoint: mean survival time, dose: 200.0 mg/kg/injection, schedule: Q01DX009 (ip), vehicle: saline with Tween-80) was 3 of 6 and the survivor count [2] was 2 of 6.

With Cc1cc2c(C(C)C)c(O)c(O)cc2c(O)c1-c1c(C)cc2c(C(C)C)c(O)c(O)cc2c1O the survivor count [8] was 6 of 6, the survivor count [10] was 6 of 6 and the survivor count [7] was 6 of 6.

CC1(C)N=C(N)N=C(N)N1c1ccc(Cl)c(C(F)(F)F)c1 was tested, and the survivor count [9] was 2 of 6.

In the case of CC(=O)Nc1cc(NC(C)=O)cc(N(CCCl)CCCl)c1, the survivor count (T/C endpoint: mean survival time, dose: 100.0 mg/kg/injection, schedule: Q01DX005 (ip), vehicle: water) is reported as 5 of 6, the survivor count (T/C endpoint: mean survival time, dose: 200.0 mg/kg/injection, schedule: Q01DX005 (ip), vehicle: water) is reported as 0 of 6 and the survivor count (T/C endpoint: mean survival time, dose: 400.0 mg/kg/injection, schedule: Q01DX005 (ip), vehicle: water) is reported as 0 of 6.

In the case of COC(=O)C(N)CCCCNc1ccc2c(cc1=O)C(NC(C)=O)CCc1cc(OC)c(OC)c(OC)c1-2 (stereo not given), the survivor count (T/C endpoint: mean survival time, dose: 270.0 mg/kg/injection, schedule: Q01DX009 (ip), vehicle: saline) is reported as 6 of 10, the survivor count (T/C endpoint: mean survival time, dose: 400.0 mg/kg/injection, schedule: Q01DX009 (oral), vehicle: saline) is reported as 1 of 6 and the survivor count (T/C endpoint: mean survival time, dose: 400.0 mg/kg/injection, schedule: Q04DX002 (ip), vehicle: saline) is reported as 2 of 3. For the same compound, the survivor count (T/C endpoint: mean survival time, dose: 800.0 mg/kg/injection, schedule: Q01DX001 (ip), vehicle: saline with Tween-80) was 1 of 6, the survivor count (T/C endpoint: mean survival time, dose: 800.0 mg/kg/injection, schedule: Q01DX001 (ip), vehicle: saline) was 0 of 6 and the survivor count (T/C endpoint: mean survival time, dose: 800.0 mg/kg/injection, schedule: Q01DX001 (sc), vehicle: saline) was 3 of 6. The survivor count (T/C endpoint: mean survival time, dose: 800.0 mg/kg/injection, schedule: Q08DX002 (ip), vehicle: saline) was 0 of 6.

In the case of CC(=Nc1ccccc1)C1=C(O)C(Cc2cccc(F)c2)NC1=O (stereo not given), the T/C (T/C endpoint: mean survival time, dose: 200.0 mg/kg/injection, schedule: Q04DX002 (ip), vehicle: saline with Tween-80) is reported as 125 % of control.
